# Laboratory results reported in patent publication US8846645B2, “Cyclohexane compounds and their use as antibiotics” (Rheinische Friedrich-Wilhelms Universität Bonn, priority 2010, dated 2014).
# At least one structure is not confirmed: it was looked up by name or label, or the drawing left a doubt.
# Legend:
# [1] = test system: glmS riboswitch of Staphylococcus aureus MU50; assay: metabolite-induced self-cleavage assay of the glmS riboswitch; format: biochemical; conditions: at a concentration of 200 μM and 20 mM; FIG. 2
# Protocol: The determination was performed using an in vitro preparation of the glmS riboswitch of Staphylococcus aureus MU50.
# The glmS riboswitch DNA was amplified from genomic DNA of the S. aureus Mu50 strain (RKI Berlin) by standard Pfu polymerase chain reaction (PCR) using a 5′ primer containing the T7 promoter (GATAATACGACTCACTATAGGGCAGTTAAAGCGCCTGTGCAAATA, SEQ ID NO: 1) and a 3′ primer (ATCTTATTAACTTTGTCCATTAAGTCACCC, SEQ ID NO: 2) (20 cycles, annealing temperature of 60° C., homemade Pfu enzyme). The resultant of a 100 μl PCR reaction was phenol/chloroform extracted and precipitated using 3M NaOAc pH 5.4 and ethanol Pellets were resuspended in 10 μl diethylpyrocarbonate treated water (DEPC H2O) and used as template for T7 RNA polymerase-based transcription. […]
# For this assay the following components were mixed to yield the stated final concentrations: cleavage buffer (50 mM Hepes pH 7.5, 200 mM KCl), MgCl2 (10 mM), glucosamine-6-phosphate (200 μM), glucosamine (GlcN) (200 μM), the compound according to formula (I) (200 μM) or the compound according to formula (3) (200 μM and 20 mM), radioactively labelled RNA (20 cps) and DEPC H2O ad 10 μl. […] The screens were read using a FujiFilm PhosphorImager FLA 3000 and evaluated using AIDA software.
# [2] = test system: Staphylococcus aureus Mu50 cells; assay: synergistic effects with vancomycin treatment of S. aureus Mu50; format: cell-based
# [3] = test system: Staphylococcus aureus SG511; assay: determination of the minimal inhibitory concentration in Staphylococcus aureus SG511; format: cell-based; conditions: 0.5× Mueller-Hinton media, 18-24 h, OD 600 nm; FIG. 3
# Protocol: The determination of the minimal inhibitory concentration (MIC) of the compounds according to formula (I) (carba-GlcN6P) and formula (3) (carba-GlcN) was performed in clear, round bottom 96-well plates. For this 100 μl of 0.5× Mueller-Hinton media (Oxoid, 300 gm/litre dehydrated infusion from beef, 17.5 gm/litre casein hydrolysate, 1.5 gm/litre starch, pH 7.3) were put into the 12 wells. To the first well 100 μl of 320 mM solution of carba-GlcN were added, mixed by pipetting and 100 μl of this mixture were transferred into the next well etc., generating a sequence final dilutions from 160 mM to 0.08 mM. Finally, SG511 cells that had been grown to an optical density (OD600) of 1 were diluted in 0.5× Mueller-Hinton media 1:10 000. From this dilution 100 μl were added to the already prepared plate leading to a final compound concentration of 80 mM-0.04 mM. After incubation for 10 min at RT and vivid shaking, the 96-well plate was transferred to a 37° C. incubator. After 18-24 h of incubation the plate was read at 600 nm using a standard plate reader.
# [4] = test system: Staphylococcus aureus Mu50 cells; assay: growth inhibition in vancomycin intermediate resistant Staphylococcus aureus Mu50 in sugar free medium; format: cell-based; conditions: 0.04-20 mM, 15 h of incubation; FIG. 4
# Protocol: For the preparation of 2× chemically defined medium (2×CDM), a minimal medium for Staphylococcus aureus without glucose, for the preparation of 500 ml the following components were mixed in individual groups before being combined:
# After preparation of the individual groups, the groups I-IV were added to group V. The volume was adjusted to 480 ml with ddH2O. The pH was adjusted to 7 using HCl followed by adjusting the volume to the final 500 ml. Before storage at 4° C. the medium was sterile filtered.
# The determination of the decrease in bacterial growth of Staphylococcus aureus Mu50 cells (RKI Berlin) depending on the concentration of the compound according to formula (3) (C GlcN) was performed in clear, sterile, round bottom 96-well plates with lid. Before treatment, the cells were grown in 2×CDM medium without glucose at 37° C. for 24 h under vigorous shaking.
# For the determination of the growth inhibition 100 μl of 2×CDM were put into each of 12 wells. […] The 96 well plate was incubated at 37° C. in a Tecan Sunrise plate reader, which tracks the optical density (OD600) in 10 minute intervals and automatically shakes the plate for one minute every two minutes. Minimal inhibitory concentration was read after 18 h to 24 h of incubation. […]
smiles,measurement,setting,value
"NC1C(O)CC(CO)C(O)C1O (stereo not drawn) [formula (3), Carba-glucosamine]",induction of glmS-riboswitch self-cleavage,[1],efficiently
same,growth inhibition in combination with vancomycin compared to compound alone,"[2]; 10 mM plus 0.0025 mM vancomycin, over 18 h, FIG. 6",more prominent growth inhibition
same,growth inhibition in combination with vancomycin compared to compound alone,"[2]; 2.5-80 mM plus 0.0025 mM vancomycin, after 10 h, FIG. 5",more prominent growth inhibition
same,effect of combination with subinhibitory vancomycin on growth inhibition,[2]; combination with subinhibitory concentration of vancomycin,synergistic effect
same,bacterial growth of Staphylococcus aureus,[3],effectively inhibit the growth
same,bacterial growth (OD600) with increased concentrations,[4],concentration dependent decrease in bacterial growth
